Experimental data reported in the supplement of paper PMC10338343.
± gives the standard deviation. Only a part is listed here, and it is no random draw. Many entries were measured with a wide error. The list shows a part of the results.

What was measured:
[1] = tested on: MILI (PIWIL2) piRISC loaded with L1MC piRNA (26 nt); test: pre-steady-state target cleavage rate (min^-1); higher = faster piRNA-guided slicing of the target; settings: guide: L1MC piRNA 5'p-UAACUAAAUACUAUGCAAGCUGUAGG
Summary of the method: (§1)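 A burst-and-steady-state fit was used to obtain the pre-steady-state cleavage rate. The input data were sequencing reads of uncleaved targets, normalised to depth and to weakly complementary targets, from a […] transcribed, DNA-blocked target RNA library mixed with 1 nM active affinity-purified piRISC holding one synthetic guide, with or without 500 nM GTSF1 partner protein, in HEPES–potassium acetate buffer at 33 °C for 0–8 or 0–960 min. Three trials were pooled and k3 was capped at 0.0001 min^-1.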

[2] = tested on: MIWI (PIWIL1) piRISC loaded with L1MC piRNA (30 nt); test: as above; settings: guide: L1MC piRNA 5'p-UAACUAAAUACUAUGCAAGCUGUAGGUCCU
Summary of the method: as §1

[3] = tested on: EfPiwi piRISC loaded with L1MC piRNA (26 nt); test: pre-steady-state target cleavage rate (min^-1); guide: L1MC piRNA 5'p-UAACUAAAUACUAUGCAAGCUGUAGG; MIWI and MILI are mouse PIWI proteins and EfPiwi is from a freshwater sponge; tags in brackets are library labels; higher = faster piRNA-guided slicing of the target
Summary of the method: as §1

[4] = auxiliary factor: 500 nM mouse GTSF1
[5] = auxiliary factor: none (no GTSF1)
[6] = auxiliary factor: 500 nM Ephydatia muelleri Gtsf1
[7] = auxiliary factor: none (no Gtsf1)

Row | Sequence | pre-steady-state target cleavage rate [1, 4] | pre-steady-state target cleavage rate [1, 5] | pre-steady-state target cleavage rate [2, 5] | pre-steady-state target cleavage rate [3, 6] | pre-steady-state target cleavage rate [3, 7] | pre-steady-state target cleavage rate [2, 4]
1 | UCCUGGUACAGCUUGCAUAGUAAAUUCAAA | 0.0147 ± 0.0074 | 0.00228 ± 0.0038 | 0.00109 ± 0.0053 | 0.0008 ± 0.011 | 0.000636 ± 0.021 | 
2 | UCCUGGAUGUGCUUGCAAUGUAUUUAGUUA | 0.0104 ± 0.005 | 0.0111 ± 0.0028 | 0.00269 ± 0.0035 | 0.000217 ± 0.022 | 0.000481 ± 0.022 | 
3 | UCCUGGAUCAGCUAGCAUAGUAUUUACAAA | 0.127 ± 0.023 | 0.00215 ± 0.0032 | 0.0018 ± 0.0037 | 0.00262 ± 0.0028 | 0.000279 ± 0.028 | 
4 | UCCUGGAUGUCGAACCUUAGUAUUUAGUUA | 0.000921 ± 0.0056 | 0.00069 ± 0.0048 | 0.00034 ± 0.013 | 0.000231 ± 0.0096 | < 0.0001 | 
5 | UCCUCCUACAGGAAGCAUAGUAUUUACAAA | 0.0698 ± 0.014 | 0.00022 ± 0.014 | 0.000543 ± 0.011 | 0.001 ± 0.0063 | < 0.0001 | 
6 | UCCUGGAAGUGCUUGCAUAGUAUUUACAAA | 0.00262 ± 0.0043 | 0.000742 ± 0.0059 | 0.00191 ± 0.0031 | 0.00194 ± 0.0026 | 0.000296 ± 0.025 | 
7 | UCCUGGAACUCGUUGCAUAGUAUUUACAAA | 0.0537 ± 0.013 | 0.00124 ± 0.0043 | 0.00225 ± 0.0032 | 0.000259 ± 0.013 | 0.000222 ± 0.028 | 
8 | UCCUGCUACAGCUUCGUUAGUAUUUAGUUA | 0.239 ± 0.022 | 0.00333 ± 0.0027 | 0.00192 ± 0.0023 | 0.00187 ± 0.0048 | 0.00118 ± 0.006 | 
9 | UCCUGGAUGUGCUUGCUAUGUAUUUAGUUA | 0.00774 ± 0.0037 | 0.00498 ± 0.0024 | 0.00155 ± 0.0043 | 0.000408 ± 0.0095 | 0.00069 ± 0.013 | 
10 | UCCUCCUACAGCUUGCAUAGUAAAUAGAAA | 0.0692 ± 0.02 | 0.00115 ± 0.0054 | 0.0011 ± 0.007 | 0.00187 ± 0.002 | 0.000194 ± 0.03 | 
11 | UCCUCCUACAGCUUGCUAAGUAUUUUCAAA | 0.0625 ± 0.017 | 0.000848 ± 0.0047 | 0.00027 ± 0.011 | 0.000916 ± 0.0073 | 0.000279 ± 0.019 | 
12 | UCCUGGUACUCCUUGCAUAGUAUUUACAAA | 0.0123 ± 0.006 | 0.000808 ± 0.0082 | 0.00129 ± 0.0066 | 0.000535 ± 0.0067 | 0.000151 ± 0.058 | 
13 | UCCUGGUACAGCUUGCAUUGUAUUUAGAAA | 0.0202 ± 0.0075 | 0.00143 ± 0.005 | 0.00195 ± 0.0028 | 0.00329 ± 0.0019 | 0.00037 ± 0.026 | 
14 | UCCUGGAUGUCCUUGCAUAGUAUUUGUUA | 0.0123 ± 0.0057 | 0.000646 ± 0.0097 | 0.00094 ± 0.0086 | 0.000519 ± 0.0054 | 0.000324 ± 0.023 | 
15 | UCCUGGUACUGCUUGCAUAGUAUUUACAAA | 0.00977 ± 0.0049 | 0.001 ± 0.0052 | 0.00226 ± 0.0041 | 0.00278 ± 0.0027 | 0.000196 ± 0.049 | 
16 | UCCUGGAUGUCCUAGCAUACUAUUUAGUUA | 0.0115 ± 0.0063 | 0.00175 ± 0.0035 | 0.00106 ± 0.0062 | 0.000679 ± 0.0048 | 0.000479 ± 0.012 | 
17 | UCCUGGAUGUCGAACGAUAGUAUUUAGUUU [g2:g14:cont:t1U] | 0.000148 ± 0.023 | 0.000376 ± 0.013 | 0.000556 ± 0.012 | 0.000119 ± 0.024 | < 0.0001 | 
18 | UCCUGCUACAGCUUGCCAUAGUAUUUAGUUA | 0.128 ± 0.015 | 0.00175 ± 0.005 | 0.000899 ± 0.0086 | 0.00382 ± 0.0023 | 0.000299 ± 0.021 | 

Record cards (already shown).
UCCUGGUACUCCUUGCAUAGUAUUUACAAA reads pre-steady-state target cleavage rate [1, 4]: 0.0123 ± 0.006; pre-steady-state target cleavage rate [1, 5]: 0.000808 ± 0.0082; pre-steady-state target cleavage rate [2, 5]: 0.00129 ± 0.0066; pre-steady-state target cleavage rate [3, 6]: 0.000535 ± 0.0067; pre-steady-state target cleavage rate [3, 7]: 0.000151 ± 0.058
UCCUGGAAGUGCUUGCAUAGUAUUUACAAA reads pre-steady-state target cleavage rate [1, 4]: 0.00262 ± 0.0043; pre-steady-state target cleavage rate [1, 5]: 0.000742 ± 0.0059; pre-steady-state target cleavage rate [2, 5]: 0.00191 ± 0.0031; pre-steady-state target cleavage rate [3, 6]: 0.00194 ± 0.0026; pre-steady-state target cleavage rate [3, 7]: 0.000296 ± 0.025
UCCUGGAUGUCGAACGAUAGUAUUUAGUUU [g2:g14:cont:t1U] reads pre-steady-state target cleavage rate [1, 4]: 0.000148 ± 0.023; pre-steady-state target cleavage rate [1, 5]: 0.000376 ± 0.013; pre-steady-state target cleavage rate [2, 5]: 0.000556 ± 0.012; pre-steady-state target cleavage rate [3, 6]: 0.000119 ± 0.024; pre-steady-state target cleavage rate [3, 7]: < 0.0001

Further records:

Row | Sequence | pre-steady-state target cleavage rate [1, 4] | pre-steady-state target cleavage rate [1, 5] | pre-steady-state target cleavage rate [2, 5] | pre-steady-state target cleavage rate [3, 6] | pre-steady-state target cleavage rate [3, 7] | pre-steady-state target cleavage rate [2, 4]
19 | UCCUGGAACAGCUUGCAUAGUAUAAAGAAA | 0.0192 ± 0.0088 | 0.000649 ± 0.0077 | 0.00147 ± 0.0053 | 0.00217 ± 0.0021 | 0.000294 ± 0.028 | 
20 | UCCUGGUACAGGAAGCAUAGUAUUUAGUAA | 0.167 ± 0.023 | 0.00332 ± 0.0019 | 0.00181 ± 0.0033 | 0.00265 ± 0.0028 | 0.000273 ± 0.019 | 
21 | UCCUGGAUGUCCUUGCAUUGUAUAUAGUUA | 0.0803 ± 0.022 | 0.00438 ± 0.0024 | 0.00109 ± 0.0059 | 0.00093 ± 0.0068 | 0.000142 ± 0.052 | 
22 | UCCUGGAUGUCGAACGUUUGAAUUUAGUUA | 0.000713 ± 0.0091 | 0.000172 ± 0.024 |  | 0.00028 ± 0.018 | 0.000301 ± 0.018 | 0.000438 ± 0.015
23 | UCCUGGAACAGCUUGCAUAGUUUUUUCAAA | 0.00594 ± 0.0037 | 0.000593 ± 0.0079 | 0.000417 ± 0.0066 | 0.000976 ± 0.003 | 0.000347 ± 0.017 | 
24 | UCCUGGAUGUCGAUGCAUAGAUAUUUAGUUA | 0.00288 ± 0.0034 | 0.00146 ± 0.0047 | 0.00174 ± 0.0046 | 0.000274 ± 0.016 | 0.000405 ± 0.015 | 
25 | UCCUGGAUGUCGUUGCAUAGUAUUUACGUUA | 0.231 ± 0.064 | 0.00342 ± 0.0036 | 0.00271 ± 0.0047 | 0.00161 ± 0.0061 | 0.000658 ± 0.015 | 
26 | UCCUGGAUCAGCUAGCAUAGUAUUUAGAAA | 0.139 ± 0.016 | 0.00177 ± 0.0036 | 0.00263 ± 0.0028 | 0.0036 ± 0.0022 | 0.000227 ± 0.032 | 
27 | UCCUGGAUGUCCUUGCUAUGUAUUUAGUAA | 0.00762 ± 0.0042 | 0.000706 ± 0.0081 | 0.000551 ± 0.011 | 0.000997 ± 0.0061 | 0.000331 ± 0.023 | 
28 | UCCUGGAUGUGCAAGCAUAGUAUUUAGAAA | 0.0135 ± 0.0052 | 0.00103 ± 0.0047 | 0.0013 ± 0.0053 | 0.00423 ± 0.0039 | 0.000422 ± 0.02 | 
29 | UCCUGGAUGAGGUUGCAUAGUAUUAAGUUA | 0.0422 ± 0.018 | 0.00493 ± 0.0031 | 0.0029 ± 0.0033 | 0.00126 ± 0.0045 | 0.000845 ± 0.011 | 
30 | UCCUCCUACAGCUUGCUAAGUAUUUAGUAA | 0.0708 ± 0.013 | 0.00132 ± 0.0047 | 0.0017 ± 0.0032 | 0.00132 ± 0.0057 | 0.000337 ± 0.016 | 
31 | UCCUGGAUGUCCUUGCAUAGUAUAUACUUA | 0.00862 ± 0.0049 | 0.000586 ± 0.011 | 0.00135 ± 0.0048 | 0.00158 ± 0.0061 | 0.000408 ± 0.016 | 
32 | UCCUGGAUGUCGUUGCAAAGUAUUUAGAUA | 0.00273 ± 0.0043 | 0.000918 ± 0.0065 | 0.000754 ± 0.0079 | 0.00108 ± 0.0069 | 0.000268 ± 0.036 | 
33 | UCCUGGAUGUGCAUGCAUACUAUUUAGUUA | 0.0253 ± 0.0066 | 0.00586 ± 0.0023 | 0.00232 ± 0.0036 | 0.00117 ± 0.0047 | 0.000258 ± 0.027 | 
34 | UCCUGCUACAGCUUGCAUAGUAUUUUGAAA | 0.112 ± 0.029 | 0.000867 ± 0.0079 | 0.00191 ± 0.0033 | 0.0045 ± 0.0018 | 0.00017 ± 0.023 | 
35 | UCCUGGAUGAGCUUGGAUAGUAUUUAGAAA | 0.00224 ± 0.0052 | 0.000731 ± 0.0073 | 0.00213 ± 0.0042 | 0.00463 ± 0.0034 | 0.000206 ± 0.034 | 
36 | UCCUGGAUGUCGAAGCAUUGUAUUUAGUUA | 0.0024 ± 0.0036 | 0.000714 ± 0.0057 | 0.00042 ± 0.012 | 0.000685 ± 0.0069 | 0.000302 ± 0.018 | 
